Consider 68 sequences from PubChem BioAssay AID1508600 (Functional Genomics Laboratory (NCATS/FGL), 2020).

Hit rate of the full screen: of about 53,000 sequences, about 3,700 (7%) were called active.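 Rule for the calls: active = gene knockdowns whose robust z-score for IL-1 alpha signal is at least 2 or at most -2, so actives lie on both sides; inactive = the rest.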 This is one part of the list.

A short description of this assay: Components of the Cytosolic LPS Sensing Pathway: Gene Identification via Genome-wide siRNA Screen.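 Note: robust z of the log signal after scaling to non-targeting control siRNA wells of the plate.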 The settings on record: RAW264.7 macrophages, IL-1a HTRF, actives lie on both sides, screened at 100 nM (by protocol), cells primed 5 h with Pam3CSK4 first. The method, boiled down: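 Cells (RAW264.7, 1×10^4 per well) were transfected with siRNA at 100 nM and cultured 48h at 37 degrees C. Pam3CSK4 was added for 5 hours; LipidA transfection followed for 24 hour. IL-1a was then measured by HTRF.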
A general note: TR-FRET usually uses a lanthanide donor and a delayed reading to cut background.
As to GGAGUUUCAGAGCAAGCAGTT against Atp6v1g2, the z-score is inactive: 1.73.
The same measure for GCGUGACGAGCUAACAGAATT against Stac2: inactive: -0.178.
The result for GGUUUGUGACAUUAUCUGCTT against Wrnip1 reads active: 2.36; that for GGUGUCAGUAUUUCCUUCATT against Spg11, inactive: -0.177; that for GGGCAGCUACGUCAUUAAGTT against Prkg2, inactive: -0.442.
As for GGACGAGGUAGCUUAUUGCTT against Pnn, the z-score was inactive: -0.606.
The result for GGGUGUGAUGGUUCUCACCTT against Olfr777 reads inactive: 0.156; that for CGAUGAUACAGACAGCAACTT against Wipf2, inactive: -0.386; that for GGUCCCAUAUACCAGAUCUTT against Slc3a1, inactive: 1.63.
The same measure for GGUGUCCAAUUGCCCUAUCTT against Tnfrsf12a: inactive: -1.98; for GCGCCUUAUGCAGGAAUACTT against Rabgap1: inactive: -1.36; for GGGUCCAUCAAGAAUUCUCTT against Rab5c: inactive: 0.93.
The result for GCCACCACCAUAAAUAUAUTT against Rspo3 reads inactive: -1.5; that for GCAAAAUCACGCUAACGACTT against Uts2, inactive: 0.0748.
For the sequence GCUGGGUCAAACAUGACGUTT against Klhl17, the z-score was inactive: 0.452.
The same measure for GGAUGAUAUCGGAGCCUGCTT against Clec4g: inactive: 0.392.
Regarding GGUCCUGUUGAGAAUUUAATT against Zdhhc15, the z-score was inactive: 0.464.
The same measure for CCAACUGUUGGUGAUGAUGTT against Cpsf6: active: -2.05; for GGGUAAUAGGCACAGACCATT against Ooep: inactive: -0.673.
The result for GGUUGGAGUUAUAGAUUUUTT against Rufy3 reads inactive: 1.42; that for GGCCAGAUCACCAAGAUUCTT against Dcaf12, inactive: -0.522; that for “GGCUCCUCAAAGCUAAAAATT against 1700001C19Rik”, inactive: 1.24.
The result for CGACUACUGCCUGAACUCUTT against Gsdmc3 reads inactive: 0.446; that for GGCAUUCUUUGGGAAGUAGTT against Slc9a2, inactive: -0.813; that for CGCUUUACCUUCCCGUUUATT against Xkrx, inactive: -1.71.
“GCUUUUUCUACGCGUCUCATT against 1700084P21Rik”: the z-score was inactive: -1.12.
The same measure for GGAAGCCAUGUUUGGAAGATT against Lce1c: inactive: -1.26; for GGAAUCGCCAUCUGCAUCUTT against Cyyr1: inactive: 0.358.
The result for GCAUUUCACCUGGAGCCUUTT against Zfp108 reads inactive: -1.11; that for “GGGAAACUCAAACUGAUUGTT against 9930104L06Rik”, inactive: 0.0417; that for GGAAAACACAAGCAAUACATT against Pus3, inactive: 0.3.
As for GGCUAGUGGUUUAUUUAUGTT against Pafah1b1, the z-score was inactive: -0.506.
The result for GGGAUUCGGUGAAGAUUUGTT against Nfe2l1 reads inactive: -0.736; that for GGCUGGGCUCUAUGGAUUATT against Fasn, inactive: -0.821.
Take “GGCAAUGUGUAGGUGCAAATT against A130050O07Rik”: the z-score is inactive: 1.38.
The same measure for CGACAGUUACUUGCCCAGATT against Rasgrp3: inactive: -1.36; for GCUGUAAAAUUGUUCCUAATT against Pebp4: inactive: -1.03; for GGACAAGCUGAGGUGAAAATT against Maats1: inactive: -1.08.
With GGAAGGAGAAAAGCUUUCUTT against Olfr992, the z-score is inactive: -0.46.
The result for GGAAAACAGAUACGUGCAUTT against Ccne2 reads inactive: 0.212; that for GCGACGAGAAGAAUCUGCUTT against Mtcl1, inactive: -0.641.
The same measure for CCCAGUAAUCCGUUACAAATT against Cyp51: inactive: -0.123.
The same measure for GGAAUCGAGAUAUAAAAGGTT against Olfr352: inactive: -1.29; for CCAUCGUAUUUAACCACAUTT against Dtymk: inactive: 0.206; for CCUGAGUGAAAACUACUUATT against Nagk: inactive: 0.356.
As to GCUGCUAUCCAGAAGGUAUTT against Egr2, the z-score was active: -2.04.
The result for GGAUGCUAUACAUUUCUACTT against Stip1 reads inactive: 1.27; that for GGCCAACAUCUGCUAUGUCTT against Hao2, active: -2.58; that for GCUCAGCAUGCUGAUUCCATT against Zmynd15, inactive: 0.0921.
Turning to GGUGACAACACUUGUCAACTT against Ctnna2, the z-score is inactive: -0.551.
The same measure for CCUCAACUCCCUGUCACACTT against Rnaseh2a: inactive: 0.944; for CGGCAGACAGACCUAUGAUTT against Exosc9: inactive: -1.56.
Regarding GGUGAUCAGACUAUCAGCUTT against Olfr1384, the z-score is inactive: 0.115.
For GCAACAACGAGUCAUGGCUTT against Plcd1, the z-score is inactive: -0.502.
Regarding GGAAUUUCUUAUCCUCAUGTT against Cyp2c29, the z-score is inactive: 0.278.
Take “CGCAGGUGUACAUAGCAGUTT against C130050O18Rik”: the z-score was inactive: 0.996.
The result for GCUACCAUCUGCUAAUACATT against Smg1 reads active: 3.65; that for CCUUGAGGAACCAACAAAATT against Rarb, inactive: 0.0528.
The result for CCAGCUGUCACAUGAAGUGTT against Fbxo38 reads inactive: -0.482; that for GGAGAUCAUGUCAAAAAAGTT against Ibtk, inactive: -0.848; that for CCUUUCCUGACAAUGUACATT against Nectin1, inactive: 0.765.
The same measure for CCGGAAGACUGGUAUUCUCTT against Nr1h4: inactive: -0.324; for GGGCUAGACAUCAUCACCATT against Trit1: inactive: -1.58.
In the case of GGCUGAUAGGUGUAUCUGGTT against Trim11, the z-score is inactive: -0.718.
For CCAGUUACGUUAAAAGCUUTT against Tmem131, the z-score was inactive: -1.13.
The result for GGAGGUAAAAGAUGAGAAATT against Plekho1 reads inactive: 1.57; that for GGGUGUCAUAUAUAUUGCUTT against Gpr83, inactive: 0.889.
The same measure for GGAGGUGGAGUUCAUCUUUTT against Chrne: inactive: 0.976.
